# Assay results: publication PMC7819943, “Rice protein-binding microarrays: a tool to detect cis-acting elements near promoter regions in rice”
# Chains of the proteins cited; added tags and fusions are not shown.
# UniProt Q0JBA9, entry or part of it: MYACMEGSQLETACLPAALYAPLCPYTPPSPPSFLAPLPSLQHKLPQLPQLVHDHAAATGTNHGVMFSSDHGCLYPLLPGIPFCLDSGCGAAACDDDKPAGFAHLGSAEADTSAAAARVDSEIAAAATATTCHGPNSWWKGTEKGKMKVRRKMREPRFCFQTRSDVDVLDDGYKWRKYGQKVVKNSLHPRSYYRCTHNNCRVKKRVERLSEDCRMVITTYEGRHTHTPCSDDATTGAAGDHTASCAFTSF
# Some of the results follow.
# Molecular target: OsWRKY34 (Oryza sativa, UniProt Q0JBA9 1-250)
# Assay: protein-binding microarray (RPBM); PBS, 2% BSA, 51.3 ng/ul salmon testes DNA, 50 uM zinc acetate, 200 nM TF, 25 C, 1 h; high values mean tight binding
# Conditions: protein: recombinant; tags: N-terminal polyhistidine and DsRed monomer fusion (pET32a); label: CyDye5-dUTP incorporated in the synthesized complementary strand; 3' TTTTT single-stranded linker to array surface; dsDNA, one strand shown
# Procedure, shortened: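 Transcription factors were made in E. coli BL21-CodonPlus as N-terminal fusions to a polyhistidine tag and DsRed, then purified on Ni–NTA. After primer extension with Cy5-dUTP and blocking with 2% BSA, a custom Agilent array was exposed for 1 h at 25 °C to 200 nM protein in PBS, 2% BSA, salmon testes DNA and 50 µM zinc acetate. Washed arrays were scanned on an Axon 4000B, and the binding signal is per-feature fluorescence intensity in arbitrary units.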
row,Sequence,binding signal
1,TAAAGTTGTAGTTTGTACCTTCCATCACATATATGCATATCGGAGTCACCTAGTGCAG,8380 fluorescence intensity (a.u.)
2,GTTTCTGCGTTTTTTATTCTTCCCGGCTATACTATAGCTTCGGAGTCACCTAGTGCAG,9700 fluorescence intensity (a.u.)
3,CTATCCCAGCCGTCCGTTCCCACCTGACAACCGACCGAATCGGAGTCACCTAGTGCAG,9790 fluorescence intensity (a.u.)
4,TTTGTAACTAAACTCGGCCTATTTTTCAATATTTCTTATCCGGAGTCACCTAGTGCAG,9420 fluorescence intensity (a.u.)
5,TCCCCAAACCGAATACGTTTTCTCACTGTTGTCTCATCCACGGAGTCACCTAGTGCAG,8670 fluorescence intensity (a.u.)
6,CTTGGTCTGGGGCTCGGGGATGTGGCGGCGGGCCGGCGGCCGGAGTCACCTAGTGCAG,10800 fluorescence intensity (a.u.)
7,AACCCCAAAAAATCCAGCACCTTCTCGCACCGCCGCCGCCCGGAGTCACCTAGTGCAG,9200 fluorescence intensity (a.u.)
8,GTATTTTTCTCTCTTATCGTGAGCCCGTGTATAAGGATTACGGAGTCACCTAGTGCAG,8770 fluorescence intensity (a.u.)
9,ATACTCCCTTCGTTTCGAAATGTTTGACGCCGTTGACTTTCGGAGTCACCTAGTGCAG,14300 fluorescence intensity (a.u.)
10,CTGCTCGCAACTTTTGCAATCTGTCTATGTTTTTTATGTTCGGAGTCACCTAGTGCAG,12000 fluorescence intensity (a.u.)
11,AATCTATTTACCTTGCTTTCCTATGTTTTCTCGAGTGAACCGGAGTCACCTAGTGCAG,9570 fluorescence intensity (a.u.)
12,TATGCTAAATTTGACATGTCTGCTGCCTATAAATCACCTGCGGAGTCACCTAGTGCAG,8200 fluorescence intensity (a.u.)
13,ATCCACGTGCTTCGCCACCCAATCGTCTCACACTTGCATCCGGAGTCACCTAGTGCAG,10200 fluorescence intensity (a.u.)
14,ACACACTTACTTATGGTTTGGGAGATATTTGATACATATGCGGAGTCACCTAGTGCAG,8630 fluorescence intensity (a.u.)
15,AGTGTCGGTGTTGACTGAGGAGGGAGAAGCTGGGAGCGGCCGGAGTCACCTAGTGCAG,8160 fluorescence intensity (a.u.)
16,TGGGAATTTCTAGCGTCCACAGCGAACGTGGTTATGTATTCGGAGTCACCTAGTGCAG,10900 fluorescence intensity (a.u.)
17,ACCGACTTCTCCTTCCACGCTAGCTAGCTCAAACCACCACCGGAGTCACCTAGTGCAG,8280 fluorescence intensity (a.u.)
18,TCTTGCGACGATCGTGTGGGGTGGGTTCGTGTGCTCTCTCCGGAGTCACCTAGTGCAG,19500 fluorescence intensity (a.u.)
19,TCATTTTGTATTTTGTTGTCTCTGTCTTGCTGTTCCCTCGCGGAGTCACCTAGTGCAG,8810 fluorescence intensity (a.u.)
20,GCTTTGGTACGTCATCTGTGTATAAGTCGATTTTTAAGTTCGGAGTCACCTAGTGCAG,9710 fluorescence intensity (a.u.)
21,CTTCGCCGCCGGCCACTTGATCCGCCTCCTTTGCCGGACGCGGAGTCACCTAGTGCAG,8720 fluorescence intensity (a.u.)

# Shown with tabs: part of the list above
row	Sequence	binding signal
12	TATGCTAAATTTGACATGTCTGCTGCCTATAAATCACCTGCGGAGTCACCTAGTGCAG	8200 fluorescence intensity (a.u.)
13	ATCCACGTGCTTCGCCACCCAATCGTCTCACACTTGCATCCGGAGTCACCTAGTGCAG	10200 fluorescence intensity (a.u.)

# Further entries follow.

row,Sequence,binding signal
1,GATATCCAGTTTTGTGGTTTAGGGTCACGGATTAGATTTCCGGAGTCACCTAGTGCAG,10100 fluorescence intensity (a.u.)
2,GTACTTCTCATTCTTAATTTTCTTCCTTCTTGAGGGACATCGGAGTCACCTAGTGCAG,10500 fluorescence intensity (a.u.)
3,GCGGGTTATTTGTAAAAGTCAATGATGGGCTATTTTGCAACGGAGTCACCTAGTGCAG,12100 fluorescence intensity (a.u.)
4,GAGGAGAGAGTAGTAACCGTTAGTTTTGTGAATTTTATGACGGAGTCACCTAGTGCAG,10400 fluorescence intensity (a.u.)
5,CCATCGCCATTGACACGGACACCTTACCTGTCACAAAGAACGGAGTCACCTAGTGCAG,8160 fluorescence intensity (a.u.)
6,TGCTTGTCCTTATATATAGTGTTTGCTAATTAACGCGGGCCGGAGTCACCTAGTGCAG,8120 fluorescence intensity (a.u.)
7,CGAGATAGGCGGGAGCTCGGAATGCGTGTGGGGTGGGCGCCGGAGTCACCTAGTGCAG,8150 fluorescence intensity (a.u.)
8,CTCCTTCTGCTGTACACCTCGCGCAACTACTCCCTCCGTCCGGAGTCACCTAGTGCAG,8520 fluorescence intensity (a.u.)
9,TGTACCTCATAGTTGATTCTGTGTTGCATTGGCTTTTACTCGGAGTCACCTAGTGCAG,10000 fluorescence intensity (a.u.)
10,GAGACACTGCCTCACTATTATTATTGTTTGTCACTGTTCGCGGAGTCACCTAGTGCAG,9530 fluorescence intensity (a.u.)
11,ATAGATTACTTACTCGTGGGCCGTATCCTAATCCAGCATCCGGAGTCACCTAGTGCAG,10200 fluorescence intensity (a.u.)
12,TGCCCTGCCTGCTTTCTTCCTGGATCGTCTCCATGCTCTGCGGAGTCACCTAGTGCAG,8680 fluorescence intensity (a.u.)
13,CACCACCAGCTCGCCGTCTCGTCTCCCTCCTCCGCTTCGCCGGAGTCACCTAGTGCAG,9770 fluorescence intensity (a.u.)
14,GAATATGTAAATCTTATGGGTCGTTGTATTTGTTAGATATCGGAGTCACCTAGTGCAG,8330 fluorescence intensity (a.u.)
15,GTTTGACACCGTGGACTTTTTTAAATATGTTTGACCATTCCGGAGTCACCTAGTGCAG,11800 fluorescence intensity (a.u.)
16,GTTCACTCGAATGCTCGGACTTTTTACATTACATTAATCACGGAGTCACCTAGTGCAG,9210 fluorescence intensity (a.u.)
17,CTGTGTCTAATTTTAATCATCCGTCTTATTTTTTTAAAAACGGAGTCACCTAGTGCAG,9700 fluorescence intensity (a.u.)
18,CTCAATTCCATGGCACAAGTCTTCCTCTCACAGTGGGGCCCGGAGTCACCTAGTGCAG,8570 fluorescence intensity (a.u.)
19,TGTTGCTGTTGATTAGCTCTCACCTAATTTGTTGTGTATGCGGAGTCACCTAGTGCAG,8610 fluorescence intensity (a.u.)
20,GTTGCACAAGAAAAATATGGATGGGGTTATTTTCAAAATTCGGAGTCACCTAGTGCAG,8430 fluorescence intensity (a.u.)
21,ATTATTAATAAAACTCATTCTATAACTCTGGACTAATTCGCGGAGTCACCTAGTGCAG,8200 fluorescence intensity (a.u.)
